Data source: PubChem BioAssay AID1508588 (Peter MacCallum Cancer Centre, 2020)
Purpose: 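Knock-downs boosting vemurafenib effects on melanoma cell growth or lactate release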 (primary screen). Cells: human WM266.4 melanoma cells (BRAF V600 mutant). Reagent: siRNA pool against human genes, 40 nM. Timing: 96 h from transfection to read-out. Challenge: vemurafenib 300 nM (about IC25), added 48 h after transfection, for 48 h; comparison arm got DMSO vehicle only. Measurement: 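Cell gain (DAPI nuclei at end minus before drug, mean of two replicates) and medium lactate by absorbance per cell, both as ratio to non-targeting siRNA, also grouped into fold-change classes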. Reading the numbers: cell gain with vemurafenib: higher = more cell gain than with non-targeting siRNA; lactate per cell with vemurafenib: higher = more lactate made per cell. Hit rule: 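Enhancement is called by pairing each knock-down's vehicle-arm and drug-arm fold-change classes for viability or glycolysis; which class combinations qualify is not given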. Calls: active = enhances vemurafenib effect; inactive = no enhancement seen.
The deposit covers about 18,000 reagents; shown is a random part of them. 790 of all reagents (4.4%) were called active. 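Calls rest on a combination of fold-change classes in drug and vehicle arms, not all shown here.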 Reagent sequences are not shown.

ASGR2 scored cell gain with vemurafenib 0.69; lactate per cell with vemurafenib 0.4; active.
TMEM222 scored cell gain with vemurafenib 0.73; lactate per cell with vemurafenib 1; inactive.
For SLC17A4, the entry reads cell gain with vemurafenib 0.52; lactate per cell with vemurafenib 1.02; inactive.
For MRPS34 the deposit lists cell gain with vemurafenib 0.96; lactate per cell with vemurafenib 0.83; inactive.
Against OR51E1, the values are cell gain with vemurafenib 0.78; lactate per cell with vemurafenib 1.28; inactive.
Against HNRNPR, the entry reads cell gain with vemurafenib 0.62; lactate per cell with vemurafenib 0.62; inactive.
After knock-down of RNFT1, the screen gave cell gain with vemurafenib 0.46; lactate per cell with vemurafenib 1.06; inactive.
Silencing of IGF2BP2 resulted in: cell gain with vemurafenib 0.43; lactate per cell with vemurafenib 0.89; inactive.
GTF3C5 showed cell gain with vemurafenib 0.68; lactate per cell with vemurafenib 1.34; inactive.
Against ERAP1, the entry reads cell gain with vemurafenib 0.49; lactate per cell with vemurafenib 0.96; inactive.
Against ZNF598, the entry reads cell gain with vemurafenib 0.67; lactate per cell with vemurafenib 0.62; inactive.
Against IFIT2, the entry reads cell gain with vemurafenib 0.37; lactate per cell with vemurafenib 0.64; inactive.
Depletion of SRM gave: cell gain with vemurafenib 0.47; lactate per cell with vemurafenib 1.06; inactive.
CERS5 showed cell gain with vemurafenib 0.94; lactate per cell with vemurafenib 0.59; inactive.
Silencing of ATP7B came out at: cell gain with vemurafenib 0.81; lactate per cell with vemurafenib 0.76; inactive.
After knock-down of DOCK1 the results were cell gain with vemurafenib 0.44; lactate per cell with vemurafenib 0.59; active.
Silencing of SAMD11 came out at: cell gain with vemurafenib 0.66; lactate per cell with vemurafenib 0.53; inactive.
Silencing of CLSTN3 gave: cell gain with vemurafenib 0.22; lactate per cell with vemurafenib 1.9; inactive.
After knock-down of ARHGAP22, the record shows cell gain with vemurafenib 1; lactate per cell with vemurafenib 1.11; inactive.
After knock-down of SESN2, the screen gave cell gain with vemurafenib 0.49; lactate per cell with vemurafenib 1.38; inactive.
With knock-down of NT5C1B, the record shows cell gain with vemurafenib 0.87; lactate per cell with vemurafenib 0.4; inactive.
Depletion of RBX1 gave: cell gain with vemurafenib 1.03; lactate per cell with vemurafenib 0.7; inactive.
With knock-down of CLGN, the record shows cell gain with vemurafenib 0.36; lactate per cell with vemurafenib 0.82; inactive.
With knock-down of TFCP2 the results were cell gain with vemurafenib 1.37; lactate per cell with vemurafenib 0.99; inactive.
DKKL1 scored cell gain with vemurafenib 0.67; lactate per cell with vemurafenib 1.4; inactive.
Depletion of OTOG gave: cell gain with vemurafenib 0.14; lactate per cell with vemurafenib 1.29; inactive.
After knock-down of PKNOX2, the record shows cell gain with vemurafenib 0.89; lactate per cell with vemurafenib 0.82; inactive.
Depletion of RENBP came out at: cell gain with vemurafenib 0.87; lactate per cell with vemurafenib 0.89; inactive.
Against DLST, the values are cell gain with vemurafenib 0.85; lactate per cell with vemurafenib 0.8; inactive.
Silencing of RHBDL2 came out at: cell gain with vemurafenib 0.6; lactate per cell with vemurafenib 1.01; inactive.
After knock-down of MS4A3 the results were cell gain with vemurafenib 0.65; lactate per cell with vemurafenib 0.9; inactive.
With knock-down of UQCC1, the screen gave cell gain with vemurafenib 0.27; lactate per cell with vemurafenib 1.38; inactive.
With knock-down of PXK, the screen gave cell gain with vemurafenib 0.36; lactate per cell with vemurafenib 1.15; inactive.
Silencing of CCDC120 resulted in: cell gain with vemurafenib 0.53; lactate per cell with vemurafenib 1.4; inactive.
After knock-down of FARSB, the record shows cell gain with vemurafenib 0.54; lactate per cell with vemurafenib 0.84; inactive.
SDAD1 showed cell gain with vemurafenib 0.48; lactate per cell with vemurafenib 0.32; active.
Against SLC39A14 the deposit lists cell gain with vemurafenib 0.61; lactate per cell with vemurafenib 0.95; inactive.
For NRXN1, the entry reads cell gain with vemurafenib 0.75; lactate per cell with vemurafenib 0.74; inactive.
After knock-down of TNFRSF4, the screen gave cell gain with vemurafenib 0.75; lactate per cell with vemurafenib 0.97; inactive.
With knock-down of CRAT, the record shows cell gain with vemurafenib 0.37; lactate per cell with vemurafenib 0.68; inactive.

No new results follow: 6 of the entries above.
TFCP2: cell gain with vemurafenib = 1.37; lactate per cell with vemurafenib = 0.99; activity call = inactive
DKKL1: cell gain with vemurafenib = 0.67; lactate per cell with vemurafenib = 1.4; activity call = inactive
OTOG: cell gain with vemurafenib = 0.14; lactate per cell with vemurafenib = 1.29; activity call = inactive
PKNOX2: cell gain with vemurafenib = 0.89; lactate per cell with vemurafenib = 0.82; activity call = inactive
RENBP: cell gain with vemurafenib = 0.87; lactate per cell with vemurafenib = 0.89; activity call = inactive
DLST: cell gain with vemurafenib = 0.85; lactate per cell with vemurafenib = 0.8; activity call = inactive
